Data reported in the supplement of paper PMC10849652.
The list shows a part of the results.

Protein sequences, listed by entry. Tags and fused reporters are not part of them. Lines headed by an entry give the natural chain unless they say otherwise; changes in a name come on top.
UniProt Q96QG7: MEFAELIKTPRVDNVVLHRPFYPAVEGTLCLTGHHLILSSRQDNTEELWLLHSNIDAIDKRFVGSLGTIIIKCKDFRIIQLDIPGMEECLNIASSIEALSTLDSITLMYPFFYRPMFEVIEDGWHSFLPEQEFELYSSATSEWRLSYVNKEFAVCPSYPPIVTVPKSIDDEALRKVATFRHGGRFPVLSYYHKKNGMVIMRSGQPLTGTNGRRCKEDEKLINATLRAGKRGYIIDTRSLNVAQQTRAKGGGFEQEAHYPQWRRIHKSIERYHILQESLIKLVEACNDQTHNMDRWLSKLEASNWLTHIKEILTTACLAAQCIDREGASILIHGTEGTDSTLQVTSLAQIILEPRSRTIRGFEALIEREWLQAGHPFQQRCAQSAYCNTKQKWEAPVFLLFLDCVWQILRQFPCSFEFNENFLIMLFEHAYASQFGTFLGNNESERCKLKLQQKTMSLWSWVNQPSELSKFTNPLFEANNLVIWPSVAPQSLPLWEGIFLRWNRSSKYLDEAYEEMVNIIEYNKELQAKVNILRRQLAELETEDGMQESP
UniProt P46199: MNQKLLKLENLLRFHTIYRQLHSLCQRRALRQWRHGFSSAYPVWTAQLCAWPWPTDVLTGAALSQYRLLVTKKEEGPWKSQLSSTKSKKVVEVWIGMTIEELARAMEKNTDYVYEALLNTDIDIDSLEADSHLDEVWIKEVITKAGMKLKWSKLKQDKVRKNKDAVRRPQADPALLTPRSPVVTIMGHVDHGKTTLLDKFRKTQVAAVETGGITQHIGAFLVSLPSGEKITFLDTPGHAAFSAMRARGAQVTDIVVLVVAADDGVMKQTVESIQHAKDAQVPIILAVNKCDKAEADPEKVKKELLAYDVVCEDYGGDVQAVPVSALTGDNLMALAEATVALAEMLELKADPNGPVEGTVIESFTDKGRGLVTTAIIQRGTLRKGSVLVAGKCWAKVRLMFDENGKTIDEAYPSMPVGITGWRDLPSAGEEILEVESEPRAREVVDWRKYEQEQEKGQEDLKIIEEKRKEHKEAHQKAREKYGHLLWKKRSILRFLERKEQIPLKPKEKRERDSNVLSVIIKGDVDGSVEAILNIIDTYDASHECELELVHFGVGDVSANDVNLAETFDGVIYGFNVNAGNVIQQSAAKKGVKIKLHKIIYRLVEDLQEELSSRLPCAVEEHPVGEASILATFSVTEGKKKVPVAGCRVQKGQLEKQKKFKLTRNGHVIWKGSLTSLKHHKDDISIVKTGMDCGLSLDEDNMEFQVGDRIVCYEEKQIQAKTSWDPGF
UniProt Q9HD23: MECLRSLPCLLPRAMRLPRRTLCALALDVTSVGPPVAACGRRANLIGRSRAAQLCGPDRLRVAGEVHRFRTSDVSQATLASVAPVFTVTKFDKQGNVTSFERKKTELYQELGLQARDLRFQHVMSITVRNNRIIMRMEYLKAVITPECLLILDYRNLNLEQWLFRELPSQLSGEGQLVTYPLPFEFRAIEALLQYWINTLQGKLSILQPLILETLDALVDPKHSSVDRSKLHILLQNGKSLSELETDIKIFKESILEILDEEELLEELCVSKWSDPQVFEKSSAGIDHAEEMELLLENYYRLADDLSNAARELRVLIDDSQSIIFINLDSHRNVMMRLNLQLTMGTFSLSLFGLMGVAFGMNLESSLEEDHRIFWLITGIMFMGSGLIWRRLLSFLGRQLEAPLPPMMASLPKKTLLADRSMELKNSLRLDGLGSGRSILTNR
UniProt P03886, whole entry, looked up: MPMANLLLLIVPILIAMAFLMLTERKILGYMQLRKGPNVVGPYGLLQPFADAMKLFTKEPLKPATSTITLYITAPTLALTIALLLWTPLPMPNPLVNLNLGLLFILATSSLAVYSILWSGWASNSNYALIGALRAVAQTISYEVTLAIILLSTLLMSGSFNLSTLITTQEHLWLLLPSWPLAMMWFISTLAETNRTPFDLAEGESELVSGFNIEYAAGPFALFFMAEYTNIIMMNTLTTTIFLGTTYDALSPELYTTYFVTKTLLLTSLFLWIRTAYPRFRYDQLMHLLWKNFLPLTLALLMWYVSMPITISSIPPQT
UniProt Q13496: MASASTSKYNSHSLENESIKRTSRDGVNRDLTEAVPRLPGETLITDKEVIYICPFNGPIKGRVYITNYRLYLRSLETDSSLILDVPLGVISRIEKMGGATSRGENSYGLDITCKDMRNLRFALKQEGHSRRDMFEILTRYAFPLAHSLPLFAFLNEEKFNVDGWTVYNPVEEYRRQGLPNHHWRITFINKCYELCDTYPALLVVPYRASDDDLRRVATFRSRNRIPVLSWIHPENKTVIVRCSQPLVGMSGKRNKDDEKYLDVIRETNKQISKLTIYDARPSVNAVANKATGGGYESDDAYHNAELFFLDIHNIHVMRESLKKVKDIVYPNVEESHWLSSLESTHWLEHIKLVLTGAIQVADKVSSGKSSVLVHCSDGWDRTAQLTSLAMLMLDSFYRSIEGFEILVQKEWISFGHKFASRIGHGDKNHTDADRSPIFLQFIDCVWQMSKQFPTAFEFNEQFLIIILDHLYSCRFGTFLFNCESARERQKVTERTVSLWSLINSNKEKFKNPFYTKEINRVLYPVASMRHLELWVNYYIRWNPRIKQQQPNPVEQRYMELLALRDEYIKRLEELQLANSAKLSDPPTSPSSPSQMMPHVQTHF
UniProt P52701: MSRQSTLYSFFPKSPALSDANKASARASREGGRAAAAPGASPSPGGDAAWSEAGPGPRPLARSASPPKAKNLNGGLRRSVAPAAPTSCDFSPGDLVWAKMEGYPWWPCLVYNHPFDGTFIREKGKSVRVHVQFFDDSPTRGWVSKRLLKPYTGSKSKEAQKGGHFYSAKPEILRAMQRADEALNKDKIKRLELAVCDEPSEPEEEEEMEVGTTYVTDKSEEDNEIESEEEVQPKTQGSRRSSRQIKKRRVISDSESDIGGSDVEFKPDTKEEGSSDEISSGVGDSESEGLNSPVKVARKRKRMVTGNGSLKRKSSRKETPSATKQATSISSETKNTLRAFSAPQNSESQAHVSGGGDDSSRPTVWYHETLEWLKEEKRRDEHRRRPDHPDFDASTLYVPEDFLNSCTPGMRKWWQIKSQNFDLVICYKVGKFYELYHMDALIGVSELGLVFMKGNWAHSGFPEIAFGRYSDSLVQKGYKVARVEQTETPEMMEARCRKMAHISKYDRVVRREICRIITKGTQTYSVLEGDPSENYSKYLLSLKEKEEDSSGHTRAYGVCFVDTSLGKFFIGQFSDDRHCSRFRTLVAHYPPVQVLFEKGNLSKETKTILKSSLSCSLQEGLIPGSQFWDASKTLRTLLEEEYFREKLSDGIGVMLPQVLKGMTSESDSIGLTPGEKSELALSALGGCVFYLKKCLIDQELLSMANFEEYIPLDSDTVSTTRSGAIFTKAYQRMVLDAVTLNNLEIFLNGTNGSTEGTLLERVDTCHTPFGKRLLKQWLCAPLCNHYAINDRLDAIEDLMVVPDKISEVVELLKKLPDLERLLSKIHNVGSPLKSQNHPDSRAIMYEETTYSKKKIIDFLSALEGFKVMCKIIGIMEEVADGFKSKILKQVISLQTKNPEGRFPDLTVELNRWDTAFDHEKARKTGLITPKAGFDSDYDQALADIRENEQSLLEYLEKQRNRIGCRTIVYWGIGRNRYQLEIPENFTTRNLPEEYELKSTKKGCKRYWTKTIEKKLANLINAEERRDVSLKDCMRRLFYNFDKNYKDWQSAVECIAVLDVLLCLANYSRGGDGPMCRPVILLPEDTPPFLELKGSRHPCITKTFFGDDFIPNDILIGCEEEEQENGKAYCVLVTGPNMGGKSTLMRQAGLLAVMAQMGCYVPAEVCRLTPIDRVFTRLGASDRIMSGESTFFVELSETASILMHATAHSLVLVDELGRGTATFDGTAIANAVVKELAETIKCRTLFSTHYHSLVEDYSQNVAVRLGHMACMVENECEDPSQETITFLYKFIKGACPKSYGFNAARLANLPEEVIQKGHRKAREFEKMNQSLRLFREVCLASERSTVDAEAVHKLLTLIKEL
UniProt Q9Y3D2: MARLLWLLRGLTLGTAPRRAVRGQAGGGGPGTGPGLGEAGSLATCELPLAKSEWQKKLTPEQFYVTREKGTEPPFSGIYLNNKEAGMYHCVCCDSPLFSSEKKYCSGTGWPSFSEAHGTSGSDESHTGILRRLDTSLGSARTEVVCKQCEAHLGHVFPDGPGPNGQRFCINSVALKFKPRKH
UniProt Q13330: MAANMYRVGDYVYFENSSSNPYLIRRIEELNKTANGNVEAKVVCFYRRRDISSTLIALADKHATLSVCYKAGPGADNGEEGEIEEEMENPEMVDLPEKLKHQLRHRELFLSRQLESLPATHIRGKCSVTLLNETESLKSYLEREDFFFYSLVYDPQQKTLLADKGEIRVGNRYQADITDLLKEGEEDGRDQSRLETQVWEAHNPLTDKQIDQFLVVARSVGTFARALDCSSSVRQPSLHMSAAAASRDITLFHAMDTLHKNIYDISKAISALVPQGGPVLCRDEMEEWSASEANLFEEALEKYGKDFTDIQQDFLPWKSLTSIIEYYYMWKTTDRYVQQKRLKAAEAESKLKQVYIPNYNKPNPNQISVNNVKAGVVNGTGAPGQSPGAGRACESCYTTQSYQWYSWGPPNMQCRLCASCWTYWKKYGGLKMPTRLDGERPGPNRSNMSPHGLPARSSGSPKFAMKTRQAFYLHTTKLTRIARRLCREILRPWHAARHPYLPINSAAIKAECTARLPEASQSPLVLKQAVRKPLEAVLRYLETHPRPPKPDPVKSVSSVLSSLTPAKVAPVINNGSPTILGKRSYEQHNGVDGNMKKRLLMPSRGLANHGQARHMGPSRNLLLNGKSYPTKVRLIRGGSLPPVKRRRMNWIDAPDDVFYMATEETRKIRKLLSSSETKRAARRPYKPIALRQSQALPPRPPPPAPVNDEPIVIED
UniProt Q96DH6: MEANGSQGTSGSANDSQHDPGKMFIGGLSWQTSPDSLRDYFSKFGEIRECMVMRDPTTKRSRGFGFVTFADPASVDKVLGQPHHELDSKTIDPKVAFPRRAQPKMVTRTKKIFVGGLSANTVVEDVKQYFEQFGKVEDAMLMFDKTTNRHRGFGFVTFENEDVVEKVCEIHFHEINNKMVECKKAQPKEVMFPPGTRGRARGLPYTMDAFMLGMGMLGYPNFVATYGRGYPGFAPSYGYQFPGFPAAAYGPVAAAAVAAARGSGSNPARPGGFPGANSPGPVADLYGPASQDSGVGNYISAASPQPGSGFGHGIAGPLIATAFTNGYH

Compound: CN1CCc2c(c3ccccc3n2Cc2ccc(C(=O)NO)cc2)C1 [Tubastatin A]
Experiment: log2 fold change, soluble protein after heating vs DMSO (PISA); higher = thermal stabilisation; K562 lysate, 10 uM; active = over 0.2 and 3.5 SD of the protein, either way, in both replicates (recomputed)
Procedure, shortened: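 Soluble protein was defined as the supernatant remaining after 21,000xg for 90 min, following pooling of heated aliquots and adjustment to 0.5% NP-40 at 4°C. Before that, crude K562 extract at 1 mg/mL protein in PBS pH 7.4 with 1 mM MgCl2 was treated with 10 μM compound for 30 min and heated for 3 min across 48°C-58°C. Quantification used TMTpro 16plex LC-MS/MS with channel sums equalised, and values are log-two fold changes in thermal stability relative to solvent controls from duplicates.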

log2 fold change, inactive:
MRPL4 (UniProt Q9BYD3) 0.004, MRPS9 (UniProt P82933) -0.036, MTMR9 (UniProt Q96QG7) 0.031, MRPL28 (UniProt Q13084) -0.074, MRPL41 (UniProt Q8IXM3) -0.023, MRPS22 (UniProt P82650) -0.04, MRPL45 (UniProt Q9BRJ2) -0.075, MRPS18A isoform 2 (UniProt Q9NVS2) -0.047, MRPL50 (UniProt Q8N5N7) 0.057, MTIF2 (UniProt P46199) -0.087, MRS2 (UniProt Q9HD23) 0.005, MT-ND1 (UniProt P03886) -0.037, MRPS30 (UniProt Q9NP92) -0.121, MTM1 (UniProt Q13496) 0.013, MRPS18B (UniProt Q9Y676) 0.008, MRPL32 (UniProt Q9BYC8) 0.021, MRPS5 (UniProt P82675) 0.031, MSH6 (UniProt P52701) -0.17, MSRB2 (UniProt Q9Y3D2) 0.033, MTA1 (UniProt Q13330) -0.045, MSI2 (UniProt Q96DH6) -0.082, MRPL9 (UniProt Q9BYD2) -0.019, MRPS10 (UniProt P82664) 0.003
